The values that follow come from PMC10907362.

Results are given in words; binding and its absence hold for the method and conditions named. Binding seen in cells or lysates may run through a third protein. A yes stands for co-enrichment or nearness to the bait. Other partners may have been found. Sequences can lack the tags named with a protein.

T1: Flag-USP40 (in HLMVECs) (human) (UniProt Q9NVE5)
T1 sequence: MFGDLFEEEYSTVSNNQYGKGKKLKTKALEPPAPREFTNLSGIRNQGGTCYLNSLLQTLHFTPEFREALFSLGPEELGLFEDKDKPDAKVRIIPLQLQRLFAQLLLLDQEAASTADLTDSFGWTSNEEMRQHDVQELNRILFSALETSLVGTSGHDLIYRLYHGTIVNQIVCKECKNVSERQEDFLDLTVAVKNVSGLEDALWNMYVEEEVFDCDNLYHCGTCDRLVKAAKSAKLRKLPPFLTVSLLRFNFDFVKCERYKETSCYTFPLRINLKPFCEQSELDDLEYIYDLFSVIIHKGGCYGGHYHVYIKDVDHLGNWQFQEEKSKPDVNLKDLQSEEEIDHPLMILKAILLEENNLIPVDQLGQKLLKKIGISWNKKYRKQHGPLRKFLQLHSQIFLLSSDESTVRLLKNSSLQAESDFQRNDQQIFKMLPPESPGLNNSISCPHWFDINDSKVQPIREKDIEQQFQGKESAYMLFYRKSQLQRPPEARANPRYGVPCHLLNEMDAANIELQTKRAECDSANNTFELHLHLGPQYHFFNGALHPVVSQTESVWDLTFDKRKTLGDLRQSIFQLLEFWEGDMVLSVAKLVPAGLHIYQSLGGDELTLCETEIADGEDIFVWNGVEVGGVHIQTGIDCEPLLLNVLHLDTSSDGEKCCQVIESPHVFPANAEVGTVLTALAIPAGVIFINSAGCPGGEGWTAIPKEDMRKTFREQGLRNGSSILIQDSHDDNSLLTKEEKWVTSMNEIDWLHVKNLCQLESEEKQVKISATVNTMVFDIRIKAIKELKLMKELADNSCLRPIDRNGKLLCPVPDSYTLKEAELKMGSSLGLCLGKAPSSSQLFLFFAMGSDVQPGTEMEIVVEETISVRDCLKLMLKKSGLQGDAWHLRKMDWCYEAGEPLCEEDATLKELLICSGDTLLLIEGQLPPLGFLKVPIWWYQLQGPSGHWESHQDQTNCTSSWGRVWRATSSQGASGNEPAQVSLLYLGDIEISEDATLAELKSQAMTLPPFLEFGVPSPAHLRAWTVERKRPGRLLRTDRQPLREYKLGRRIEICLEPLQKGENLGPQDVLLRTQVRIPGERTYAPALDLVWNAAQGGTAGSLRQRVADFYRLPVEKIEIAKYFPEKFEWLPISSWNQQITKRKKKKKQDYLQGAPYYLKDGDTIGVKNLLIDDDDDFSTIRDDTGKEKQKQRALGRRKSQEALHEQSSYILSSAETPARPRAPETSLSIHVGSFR

B1: Engulfment and cell motility protein 2 (protein, UniProt Q96JJ3 1-720)
chain: MPPPSDIVKVAIEWPGANAQLLEIDQKRPLASIIKEVCDGWSLPNPEYYTLRYADGPQLYITEQTRSDIKNGTILQLAISPSRAARQLMERTQSSNMETRLDAMKELAKLSADVTFATEFINMDGIIVLTRLVESGTKLLSHYSEMLAFTLTAFLELMDHGIVSWDMVSITFIKQIAGYVSQPMVDVSILQRSLAILESMVLNSQSLYQKIAEEITVGQLISHLQVSNQEIQTYAIALINALFLKAPEDKRQDMANAFAQKHLRSIILNHVIRGNRPIKTEMAHQLYVLQVLTFNLLEERMMTKMDPNDQAQRDIIFELRRIAFDAESDPSNAPGSGTEKRKAMYTKDYKMLGFTNHINPAMDFTQTPPGMLALDNMLYLAKVHQDTYIRIVLENSSREDKHECPFGRSAIELTKMLCEILQVGELPNEGRNDYHPMFFTHDRAFEELFGICIQLLNKTWKEMRATAEDFNKVMQVVREQITRALPSKPNSLDQFKSKLRSLSYSEILRLRQSERMSQDDFQSPPIVELREKIQPEILELIKQQRLNRLCEGSSFRKIGNRRRQERFWYCRLALNHKVLHYGDLDDNPQGEVTFESLQEKIPVADIKAIVTGKDCPHMKEKSALKQNKEVLELAFSILYDPDETLNFIAPNKYEYCIWIDGLSALLGKDMSSELTKSDLDTLLSMEMKLRLLDLENIQIPEAPPPIPKEPSSYDFVYHYG
B2: Tropomodulin-3 (protein, UniProt Q9NYL9 1-352)
chain: MALPFRKDLEKYKDLDEDELLGNLSETELKQLETVLDDLDPENALLPAGFRQKNQTSKSTTGPFDREHLLSYLEKEALEHKDREDYVPYTGEKKGKIFIPKQKPVQTFTEEKVSLDPELEEALTSASDTELCDLAAILGMHNLITNTKFCNIMGSSNGVDQEHFSNVVKGEKILPVFDEPPNPTNVEESLKRTKENDAHLVEVNLNNIKNIPIPTLKDFAKALETNTHVKCFSLAATRSNDPVATAFAEMLKVNKTLKSLNVESNFITGVGILALIDALRDNETLAELKIDNQRQQLGTAVELEMAKMLEENTNILKFGYQFTQQGPRTRAANAITKNNDLVRKRRVEGDHQ
B3: Isoform 2 of Synaptopodin (protein, UniProt Q8N3V7-2 1-903)
chain: MEGYSEEASLLRHLEKVASEEEEVPLVVYLKENAALLTANGLHLSQNREAQQSSPAPPPAEVHSPAADVNQNLASPSATLTTPTSNSSHNPPATDVNQNPPATVVPQSLPLSSIQQNSSEAQLPSNGTGPASKPSTLCADGQPQAPAEEVRCSTLLIDKVSTPATTTSTFSREATLIPSSRPPASDFMSSSLLIDIQPNTLVVSADQEMSGRAAATTPTKVYSEVHFTLAKPPSVVNRTARPFGIQAPGGTSQMERSPMLERRHFGEKAPAPQPPSLPDRSPRPQRHIMSRSPMVERRMMGQRSPASERRPLGNFTAPPTYTETLSTAPLASWVRSPPSYSVLYPSSDPKSSHLKGQAVPASKTGILEESMARRGSRKSMFTFVEKPKVTPNPDLLDLVQTADEKRRQRDQGEVGVEEEPFALGAEASNFQQEPAPRDRASPAAAEEVVPEWASCLKSPRIQAKPKPKPNQNLSEASGKGAELYARRQSRMEKYVIESSSHTPELARCPSPTMSLPSSWKYPTNAPGAFRVASRSPARTPPASLYHGYLPENGVLRPEPTKQPPYQLRPSLFVLSPIKEPAKVSPRAASPAKPSSLDLVPNLPKGALPPSPALPRPSRSSPGLYTSPGQDSLQPTAVSPPYGGDISPVSPSRAWSPRAKQAPRPSFSTRNAGIEAQDRRESLPTSPPWTPGASRPPSSLDGWVSPGPWEPGRGSSMSSPPPLPPPPPMSPSWSERSVSPLRPETEARPPSRQLQALLARNIINAARRKSASPRSAGAENPRPFSPPRAPPPPPPPPPPPPRMRSPQPARPGSAAVPGAAFAPIPRSPLPAGPSSCTSPRSPLPAPPRPFLYRRSPTDSDVSLDSEDSGAKSPGILGYNICPRGWNGSLRLKRGSLPAEASCTT
B4: Serpin H1 (protein, UniProt P50454 19-418)
chain: AEVKKPAAAAAPGTAEKLSPKAATLAERSAGLAFSLYQAMAKDQAVENILVSPVVVASSLGLVSLGGKATTASQAKAVLSAEQLRDEEVHAGLGELLRSLSNSTARNVTWKLGSRLYGPSSVSFADDFVRSSKQHYNCEHSKINFRDKRSALQSINEWAAQTTDGKLPEVTKDVERTDGALLVNAMFFKPHWDEKFHHKMVDNRGFMVTRSYTVGVMMMHRTGLYNYYDDEKEKLQIVEMPLAHKLSSLIILMPHHVEPLERLEKLLTKEQLKIWMGKMQKKAVAISLPKGVVEVTHDLQKHLAGLGLTEAIDKNKADLSRMSGKKDLYLASVFHATAFELDTDGNPFDQDIYGREELRSPKLFYADHPFIFLVRDTQSGSLLFIGRLVRPKGDKMRDEL
B5: Junction plakoglobin (protein, UniProt P14923 1-745)
chain: MEVMNLMEQPIKVTEWQQTYTYDSGIHSGANTCVPSVSSKGIMEEDEACGRQYTLKKTTTYTQGVPPSQGDLEYQMSTTARAKRVREAMCPGVSGEDSSLLLATQVEGQATNLQRLAEPSQLLKSAIVHLINYQDDAELATRALPELTKLLNDEDPVVVTKAAMIVNQLSKKEASRRALMGSPQLVAAVVRTMQNTSDLDTARCTTSILHNLSHHREGLLAIFKSGGIPALVRMLSSPVESVLFYAITTLHNLLLYQEGAKMAVRLADGLQKMVPLLNKNNPKFLAITTDCLQLLAYGNQESKLIILANGGPQALVQIMRNYSYEKLLWTTSRVLKVLSVCPSNKPAIVEAGGMQALGKHLTSNSPRLVQNCLWTLRNLSDVATKQEGLESVLKILVNQLSVDDVNVLTCATGTLSNLTCNNSKNKTLVTQNSGVEALIHAILRAGDKDDITEPAVCALRHLTSRHPEAEMAQNSVRLNYGIPAIVKLLNQPNQWPLVKATIGLIRNLALCPANHAPLQEAAVIPRLVQLLVKAHQDAQRHVAAGTQQPYTDGVRMEEIVEGCTGALHILARDPMNRMEIFRLNTIPLFVQLLYSSVENIQRVAAGVLCELAQDKEAADAIDAEGASAPLMELLHSRNEGTATYAAAVLFRISEDKNPDYRKRVSVELTNSLFKHDPAAWEAAQSMIPINEPYGDDMDATYRPMYSSDVPLDPLEMHMDMDGDYPIDTYSDGLRPPYPTADHMLA
B6: Isoform 4 of Ankycorbin (protein, UniProt Q9P0K7-4 1-951)
chain: MKSLKAKFRKSDTNEWNKNDDRLLQAVENGDAEKVASLLGKKGASATKHDSEGKTAFHLAAAKGHVECLRVMITHGVDVTAQDTTGHSALHLAAKNSHHECIRKLLQSKCPAESVDSSGKTALHYAAAQGCLQAVQILCEHKSPINLKDLDGNIPLLLAVQNGHSEICHFLLDHGADVNSRNKSGRTALMLACEIGSSNAVEALIKKGADLNLVDSLGYNALHYSKLSENAGIQSLLLSKISQDADLKTPTKPKQLSDVSSPRSITSTPLSGKESVFFAEPPFKAEISSIRENKDRLSDSTTGADSLLDISSEADQQDLLSLLQAKVASLTLHNKELQDKLQAKSPKEAEADLSFDSYHSTQTDLGPSLGKPGETSPPDSKSSPSVLIHSLGKSTTDNDVRIQQLQEILQDLQKRLESSEAERKQLQVELQSRRAELVCLNNTEISENSSDLSQKLKETQSKYEEAMKEVLSVQKQMKLGLVSPESMDNYSHFHELRVTEEEINVLKQDLQNALEESERNKEKVRELEEKLVEREKGTVIKPPVEEYEEMKSSYCSVIENMNKEKAFLFEKYQEAQEEIMKLKDTLKSQMTQEASDEAEDMKEAMNRMIDELNKQVSELSQLYKEAQAELEDYRKRKSLEDVTAEYIHKAEHEKLMQLTNVSRAKAEDALSEMKSQYSKVLNELTQLKQLVDAQKENSVSITEHLQVITTLRTAAKEMEEKISNLKEHLASKEVEVAKLEKQLLEEKAAMTDAMVPRSSYEKLQSSLESEVSVLASKLKESVKEKEKVHSEVVQIRSEVSQVKREKENIQTLLKSKEQEVNELLQKFQQAQEELAEMKRYAESSSKLEEDKDKKINEMSKEVTKLKEALNSLSQLSYSTSSSKRQSQQLEALQQQVKQLQNQLAECKKQHQEVISVYRMHLLYAVQGQMDEDVQKVLKQILTMCKNQSQKK

The assay has as its target T1, Flag-USP40 (in HLMVECs) (human). Put plainly: affinity purification with mass spectrometry; Flag-USP40 immunoprecipitated from transfected HLMVECs with FLAG-M2 affinity gel; eluted under reducing conditions, SDS-PAGE, Coomassie, bands excised, in-gel trypsin digestion, LC-MS.
On to B1, for which the binding result is “binds”. As for B2, the entry is “binds”; as for B3, “binds”; as for B4, “binds”. On to B5, for which the binding result was “binds”. The entry for B6 is “binds”.
